Measurements reported in the supplement of paper PMC8728848.
This is one part of the list.

Key:
Test in all cases: glycan array binding signal (z-score within array); higher = stronger binding
Settings in all cases: glycan notation: IUPAC condensed, linker removed
[1] = molecular target: Fuc(a1-3)[Gal3S(b1-4)]GlcNAc6S
Method in brief: (§1)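 The binding signal is a Z-score computed within each array and averaged over linkers. Arrays of the same protein sequence at different concentrations or buffers were also averaged together. Data originate from 3228 arrays in the Consortium for Functional Glycomics database, kept only where the protein sequence was available.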

[2] = molecular target: Fuc(a1-3)[GalNAc(b1-4)]GlcNAc
Method in brief: as §1

[3] = molecular target: Fuc(a1-3)[GalNAc(b1-4)]GlcNAc6S
Method in brief: as §1

[4] = molecular target: Fuc(a1-4)GlcNAc
Method in brief: as §1

[5] = molecular target: Fuc(b1-3)GlcNAc
Method in brief: as §1

[6] = molecular target: Gal(a1-2)Gal
Method in brief: as §1

[7] = molecular target: Gal(a1-3)Gal
Method in brief: as §1

[8] = molecular target: Gal(a1-3)Gal(b1-3)GlcNAc
Method in brief: as §1

[9] = molecular target: Gal(a1-3)Gal(b1-3)GlcNAc(b1-2)Man
Method in brief: as §1

[10] = molecular target: Gal(a1-3)Gal(b1-3)GlcNAc(b1-2)Man(a1-3)[Gal(a1-3)Gal(b1-3)GlcNAc(b1-2)Man(a1-6)]Man(b1-4)GlcNAc(b1-4)GlcNAc
Method in brief: as §1

[11] = molecular target: Gal(a1-3)Gal(b1-3)GlcNAc(b1-3)GalNAc
Method in brief: as §1

[12] = molecular target: Gal(a1-3)Gal(b1-3)GlcNAc(b1-6)GalNAc
Method in brief: as §1

[13] = molecular target: Gal(a1-3)Gal(b1-3)[Fuc(a1-4)]GlcNAc(b1-2)Man(a1-3)[Gal(a1-3)Gal(b1-3)[Fuc(a1-4)]GlcNAc(b1-2)Man(a1-6)]Man(b1-4)GlcNAc(b1-4)GlcNAc
Method in brief: as §1

[14] = molecular target: Gal(a1-3)Gal(b1-4)Glc
Method in brief: as §1

[15] = molecular target: Gal(a1-3)Gal(b1-4)GlcNAc
Method in brief: as §1

[16] = molecular target: Gal(a1-3)Gal(b1-4)GlcNAc(b1-2)Man
Method in brief: as §1

[17] = molecular target: Gal(a1-3)Gal(b1-4)GlcNAc(b1-2)Man(a1-3)[Gal(a1-3)Gal(b1-4)GlcNAc(b1-2)Man(a1-6)]Man(b1-4)GlcNAc(b1-4)GlcNAc
Method in brief: as §1

[18] = molecular target: Gal(a1-3)Gal(b1-4)GlcNAc(b1-3)GalNAc
Method in brief: as §1

[19] = molecular target: Gal(a1-3)Gal(b1-4)GlcNAc(b1-6)GalNAc
Method in brief: as §1

[20] = molecular target: Gal(a1-3)Gal(b1-4)[Fuc(a1-3)]GlcNAc
Method in brief: as §1

[21] = molecular target: Gal(a1-3)Gal(b1-4)[Fuc(a1-3)]GlcNAc(b1-2)Man(a1-3)[Gal(a1-3)Gal(b1-4)[Fuc(a1-3)]GlcNAc(b1-2)Man(a1-6)]Man(b1-4)GlcNAc(b1-4)GlcNAc
Method in brief: as §1

[22] = molecular target: Gal(a1-3)GalNAc
Method in brief: as §1

[23] = molecular target: Gal(a1-3)[Gal(a1-4)]Gal(b1-4)GlcNAc
Method in brief: as §1

[24] = molecular target: Gal(a1-4)Gal(b1-3)GlcNAc(b1-2)Man(a1-3)[Gal(a1-4)Gal(b1-3)GlcNAc(b1-2)Man(a1-6)]Man(b1-4)GlcNAc(b1-4)GlcNAc
Method in brief: as §1

[25] = molecular target: Gal(a1-4)Gal(b1-4)Glc
Method in brief: as §1

[26] = molecular target: Gal(a1-4)Gal(b1-4)GlcNAc
Method in brief: as §1

[27] = molecular target: Gal(a1-4)Gal(b1-4)GlcNAc(b1-2)Man(a1-3)[Gal(a1-4)Gal(b1-4)GlcNAc(b1-2)Man(a1-6)]Man(b1-4)GlcNAc(b1-4)GlcNAc
Method in brief: as §1

[28] = molecular target: Gal(a1-4)Gal(b1-4)GlcNAc(b1-3)Gal(b1-4)Glc
Method in brief: as §1

[29] = molecular target: Gal(a1-4)GlcNAc
Method in brief: as §1

[30] = molecular target: Gal(a1-6)Glc
Method in brief: as §1

[31] = molecular target: Gal(b1-2)Gal
Method in brief: as §1

[32] = molecular target: Gal(b1-3)Gal
Method in brief: as §1

[33] = molecular target: Gal(b1-3)Gal(b1-4)GlcNAc
Method in brief: as §1

[34] = molecular target: Gal(b1-3)GalNAc
Method in brief: as §1

[35] = molecular target: Gal(b1-3)GalNAc(a1-3)[Fuc(a1-2)]Gal(b1-4)Glc
Method in brief: as §1

[36] = molecular target: Gal(b1-3)GalNAc(a1-3)[Fuc(a1-2)]Gal(b1-4)GlcNAc
Method in brief: as §1

[37] = molecular target: Gal(b1-3)GalNAc(b1-3)Gal
Method in brief: as §1

B1: TAL6-4LysM (Trichoderma atroviride) (protein)
chain: AADSIPSISPTGIITPTPTQSGMVSNCNKFYDVHSNDGCSAIASSQHVDLSSLYKWNPAIKTDCSGLQASVYVCIGILTTSMSTTSKLPTTTSKPSTTSKPPTGITTPTPTQSGMVKNCNKFYDVHSGDGCSAIASSQKVNLSSFYLWNPAVKTDCSGLQASVFVCIGTLTTSMSTTTSKLPTTTSKPSTTSKPPTGIITPTPTQNGMVKNCNKFYDVHSGDGCSAIASSQKVNLSSFYLWNPAVKTDCSGLQASVFVCVGTATTTTAAGITTPTPTQSGMVSGCNKFYDVHAGDGCSAIASSQKIALSSLYKWNPAVKTDCSGLQASVYICIGVGNAAAARVTGALEQKLISEEDLNSAVDHHHHHH
glycan array binding signal (z-score) [1]: 0.519 | glycan array binding signal (z-score) [2]: 3.19 | glycan array binding signal (z-score) [3]: -0.396 | glycan array binding signal (z-score) [4]: 1.14 | glycan array binding signal (z-score) [5]: -0.301 | glycan array binding signal (z-score) [6]: -0.207 | glycan array binding signal (z-score) [7]: -0.661 | glycan array binding signal (z-score) [8]: -1.73 | glycan array binding signal (z-score) [9]: -0.809 | glycan array binding signal (z-score) [10]: 0.359 | glycan array binding signal (z-score) [11]: -1.04 | glycan array binding signal (z-score) [12]: 0.369 | glycan array binding signal (z-score) [13]: 0.387 | glycan array binding signal (z-score) [14]: -0.807 | glycan array binding signal (z-score) [15]: -0.344 | glycan array binding signal (z-score) [16]: -1.69 | glycan array binding signal (z-score) [17]: -0.267 | glycan array binding signal (z-score) [18]: 0.346 | glycan array binding signal (z-score) [19]: -1.35 | glycan array binding signal (z-score) [20]: 0.731 | glycan array binding signal (z-score) [21]: -1.56 | glycan array binding signal (z-score) [22]: -0.635 | glycan array binding signal (z-score) [23]: -0.657 | glycan array binding signal (z-score) [24]: -0.356 | glycan array binding signal (z-score) [25]: -0.552 | glycan array binding signal (z-score) [26]: 0.197 | glycan array binding signal (z-score) [27]: 0.171 | glycan array binding signal (z-score) [28]: -1.29 | glycan array binding signal (z-score) [29]: 2.59 | glycan array binding signal (z-score) [30]: 1.79 | glycan array binding signal (z-score) [31]: 0.734 | glycan array binding signal (z-score) [32]: -0.511 | glycan array binding signal (z-score) [33]: 2.92 | glycan array binding signal (z-score) [34]: -0.084 | glycan array binding signal (z-score) [35]: -0.473 | glycan array binding signal (z-score) [36]: -0.542 | glycan array binding signal (z-score) [37]: -1.26
